Laboratory results: paper PMC7484759

The chains behind the UniProt entries cited, without tags or fusion partners.
UniProt Q9UNE7: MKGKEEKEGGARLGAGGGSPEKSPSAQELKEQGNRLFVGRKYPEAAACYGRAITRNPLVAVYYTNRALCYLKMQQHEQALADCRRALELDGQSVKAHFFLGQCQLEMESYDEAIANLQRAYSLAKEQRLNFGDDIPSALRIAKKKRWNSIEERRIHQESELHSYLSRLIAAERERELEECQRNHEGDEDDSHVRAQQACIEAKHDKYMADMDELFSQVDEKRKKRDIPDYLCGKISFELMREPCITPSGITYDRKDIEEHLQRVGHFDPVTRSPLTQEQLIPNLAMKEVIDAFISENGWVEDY

Columns and labels:
[1] = biological target: T1, NOXA (endogenous) (human (endogenous in HeLa)) (UniProt Q13794); test: affinity purification with mass spectrometry; IP with NOXA antibody (clone N-15) and Protein G beads; HEK293T transfected with HA-NOXA 36 h, 1 µM DOX 16 h, cells cross-linked with 0.025% glutaraldehyde before lysis; endogenous NOXA also used as bait; binders defined as proteins not present in the IgG control
T1 sequence: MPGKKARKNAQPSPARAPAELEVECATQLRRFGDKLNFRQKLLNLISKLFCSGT

HA-NOXA^wt (human) = biological target: T2, HA-NOXA^wt (human); test: as above
T2 sequence: T1 sequence

“CHIP (carboxyl-terminus of Hsc70-interacting protein) (from UniProt Q9UNE7 1-303) (enzyme)” was tested, and the binding [1] was “binds” and the binding (HA-NOXA^wt (human)) was “binds”.

Results are given in words; binding and its absence hold for the method and conditions named. Binding seen in cells or lysates may run through a third protein. These calls come from enrichment with a bait or labelling near it, and not all partners need be listed. For some assays here: Tags and fused reporters may be left off the sequences shown.
